Here are results for 1 molecule from the supplement of paper PMC8728848.

This is one part of the list.

What all share (test): glycan array binding signal (z-score within array); higher = stronger binding
Holding throughout (details): glycan notation: IUPAC condensed, linker removed

For test [1], the target named is Gal(b1-4)GalNAc(b1-3)[Fuc(a1-2)]Gal(b1-4)GlcNAc. The gist of the method:
(§1)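 Arrays were curated from the Consortium for Functional Glycomics database, 3228 in total, and kept only where the protein sequence was available. Binding is expressed as a within-array Z-score. This score was averaged across arrays of the same protein sequence at different concentrations or buffers and across linkers, and negative values can be read as non-binding.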

The target of the next test is Gal(b1-4)Glc. The gist of the method:
as §1

The target of the next test is Gal(b1-4)Glc6S. The procedure, abridged: as §1
The target of another test is Gal(b1-4)GlcNAc. The gist of the method:
as §1

Test [2] addresses Gal(b1-4)GlcNAc(a1-6)Gal(b1-4)GlcNAc. The procedure, abridged:
as §1

The next test addresses Gal(b1-4)GlcNAc(b1-2)Man. The procedure, abridged:
as §1

Test [3] addresses Gal(b1-4)GlcNAc(b1-2)Man(a1-3)Man(b1-4)GlcNAc(b1-4)GlcNAc. The procedure, abridged: as §1
Test [4] deals with Gal(b1-4)GlcNAc(b1-2)Man(a1-3)[Gal(b1-4)GlcNAc(b1-2)Man(a1-6)]Man(b1-4)GlcNAc(b1-4)GlcNAc. The procedure, abridged:
as §1

The target in test [5] is Gal(b1-4)GlcNAc(b1-2)Man(a1-3)[Gal(b1-4)GlcNAc(b1-2)Man(a1-6)]Man(b1-4)GlcNAc(b1-4)[Fuc(a1-6)]GlcNAc. The gist of the method:
as §1

In test [6] the target is Gal(b1-4)GlcNAc(b1-2)Man(a1-3)[Gal(b1-4)GlcNAc(b1-2)Man(a1-6)][Gal(b1-4)GlcNAc(b1-4)]Man(b1-4)GlcNAc(b1-4)[Fuc(a1-6)]GlcNAc. The procedure, abridged:
as §1

Test [7] addresses Gal(b1-4)GlcNAc(b1-2)Man(a1-3)[Gal(b1-4)GlcNAc(b1-2)Man(a1-6)][GlcNAc(b1-4)]Man(b1-4)GlcNAc(b1-4)[Fuc(a1-6)]GlcNAc. The procedure, abridged:
as §1

Test [8] deals with Gal(b1-4)GlcNAc(b1-2)Man(a1-3)[GlcNAc(b1-2)Man(a1-6)]Man(b1-4)GlcNAc(b1-4)GlcNAc. The procedure, abridged:
as §1

The target of test [9] is Gal(b1-4)GlcNAc(b1-2)Man(a1-3)[GlcNAc(b1-4)][Gal(b1-4)GlcNAc(b1-2)Man(a1-6)]Man(b1-4)GlcNAc(b1-4)GlcNAc. The gist of the method: as §1
Test [10] has as its target Gal(b1-4)GlcNAc(b1-2)Man(a1-3)[Man(a1-6)]Man(b1-4)GlcNAc(b1-4)GlcNAc. The procedure, abridged: as §1
The target in test [11] is Gal(b1-4)GlcNAc(b1-2)Man(a1-6)Man(b1-4)GlcNAc(b1-4)GlcNAc. The gist of the method:
as §1

Test [12] deals with Gal(b1-4)GlcNAc(b1-2)Man(a1-6)[GlcNAc(b1-2)Man(a1-3)]Man(b1-4)GlcNAc(b1-4)GlcNAc. The procedure, abridged:
as §1

Test [13] has as its target Gal(b1-4)GlcNAc(b1-2)Man(a1-6)[Man(a1-3)]Man(b1-4)GlcNAc(b1-4)GlcNAc. The gist of the method:
as §1

Test [14] deals with Gal(b1-4)GlcNAc(b1-2)[Gal(b1-4)GlcNAc(b1-4)]Man(a1-3)[Gal(b1-4)GlcNAc(b1-2)Man(a1-6)]Man(b1-4)GlcNAc(b1-4)GlcNAc. The gist of the method: as §1
Test [15] addresses Gal(b1-4)GlcNAc(b1-2)[Gal(b1-4)GlcNAc(b1-4)]Man(a1-3)[Gal(b1-4)GlcNAc(b1-2)[Gal(b1-4)GlcNAc(b1-6)]Man(a1-6)]Man(b1-4)GlcNAc(b1-4)GlcNAc. The procedure, abridged:
as §1

For test [16], the target named is Gal(b1-4)GlcNAc(b1-2)[Gal(b1-4)GlcNAc(b1-4)]Man(a1-3)[GlcNAc(b1-4)][Gal(b1-4)GlcNAc(b1-2)Man(a1-6)]Man(b1-4)GlcNAc(b1-4)GlcNAc. The procedure, abridged: as §1
In test [17] the target is Gal(b1-4)GlcNAc(b1-2)[Gal(b1-4)GlcNAc(b1-4)]Man(a1-3)[GlcNAc(b1-4)][Gal(b1-4)GlcNAc(b1-2)[Gal(b1-4)GlcNAc(b1-6)]Man(a1-6)]Man(b1-4)GlcNAc(b1-4)GlcNAc. The procedure, abridged:
as §1

Test [18] deals with Gal(b1-4)GlcNAc(b1-2)[Gal(b1-4)GlcNAc(b1-6)]Man(a1-6)[Gal(b1-4)GlcNAc(b1-2)Man(a1-3)]Man(b1-4)GlcNAc(b1-4)GlcNAc. The gist of the method:
as §1

B1: EfCBM33A (Enterococcus faecalis), Q838S1 (protein)
chain: MKKSLLTIVLAFSFVLGGAALAPTVSEAHGYVASPGSRAFFGSSAGGNLNTNVGRAQWEPQSIEAPKNTFITGKLASAGVSGFEPLDEQTATRWHKTNITTGPLDITWNLTAQHRTASWDYYITKNGWNPNQPLDIKNFDKIASIDGKQEVPNKVVKQTINIPTDRKGYHVIYAVWGIGDTVNAFYQAIDVNIQ
Consider B1, for which the “glycan array binding signal (z-score)” value was 1.07 in test [1]; -0.27 with Gal(b1-4)Glc; -1.15 in the test with Gal(b1-4)Glc6S; -0.861 with Gal(b1-4)GlcNAc; -0.654 in test [2]; 0.594 with Gal(b1-4)GlcNAc(b1-2)Man. Moreover, the “glycan array binding signal (z-score)” value in [3] is 0.005; in test [4], -0.738; in test [5], 1.68; in [6], -0.8; in [7], -1.04; in test [8], -1.01. The “glycan array binding signal (z-score)” value is 0.955 in test [9]; 0.65 in [10]; -0.202 in test [11]; -0.726 in test [12]; 0.026 in [13]; -1.17 in test [14]. The “glycan array binding signal (z-score)” value is -1.07 in test [15], -1.24 in test [16], -0.469 in test [17] and 1.35 in [18].
